Data published in the supplement of paper PMC10849652.
Some of the results follow.

Chains of the proteins cited; added tags and fusions are not shown. Lines headed by an entry give the natural chain unless they say otherwise; changes in a name come on top.
UniProt Q9Y4E6, whole entry, looked up: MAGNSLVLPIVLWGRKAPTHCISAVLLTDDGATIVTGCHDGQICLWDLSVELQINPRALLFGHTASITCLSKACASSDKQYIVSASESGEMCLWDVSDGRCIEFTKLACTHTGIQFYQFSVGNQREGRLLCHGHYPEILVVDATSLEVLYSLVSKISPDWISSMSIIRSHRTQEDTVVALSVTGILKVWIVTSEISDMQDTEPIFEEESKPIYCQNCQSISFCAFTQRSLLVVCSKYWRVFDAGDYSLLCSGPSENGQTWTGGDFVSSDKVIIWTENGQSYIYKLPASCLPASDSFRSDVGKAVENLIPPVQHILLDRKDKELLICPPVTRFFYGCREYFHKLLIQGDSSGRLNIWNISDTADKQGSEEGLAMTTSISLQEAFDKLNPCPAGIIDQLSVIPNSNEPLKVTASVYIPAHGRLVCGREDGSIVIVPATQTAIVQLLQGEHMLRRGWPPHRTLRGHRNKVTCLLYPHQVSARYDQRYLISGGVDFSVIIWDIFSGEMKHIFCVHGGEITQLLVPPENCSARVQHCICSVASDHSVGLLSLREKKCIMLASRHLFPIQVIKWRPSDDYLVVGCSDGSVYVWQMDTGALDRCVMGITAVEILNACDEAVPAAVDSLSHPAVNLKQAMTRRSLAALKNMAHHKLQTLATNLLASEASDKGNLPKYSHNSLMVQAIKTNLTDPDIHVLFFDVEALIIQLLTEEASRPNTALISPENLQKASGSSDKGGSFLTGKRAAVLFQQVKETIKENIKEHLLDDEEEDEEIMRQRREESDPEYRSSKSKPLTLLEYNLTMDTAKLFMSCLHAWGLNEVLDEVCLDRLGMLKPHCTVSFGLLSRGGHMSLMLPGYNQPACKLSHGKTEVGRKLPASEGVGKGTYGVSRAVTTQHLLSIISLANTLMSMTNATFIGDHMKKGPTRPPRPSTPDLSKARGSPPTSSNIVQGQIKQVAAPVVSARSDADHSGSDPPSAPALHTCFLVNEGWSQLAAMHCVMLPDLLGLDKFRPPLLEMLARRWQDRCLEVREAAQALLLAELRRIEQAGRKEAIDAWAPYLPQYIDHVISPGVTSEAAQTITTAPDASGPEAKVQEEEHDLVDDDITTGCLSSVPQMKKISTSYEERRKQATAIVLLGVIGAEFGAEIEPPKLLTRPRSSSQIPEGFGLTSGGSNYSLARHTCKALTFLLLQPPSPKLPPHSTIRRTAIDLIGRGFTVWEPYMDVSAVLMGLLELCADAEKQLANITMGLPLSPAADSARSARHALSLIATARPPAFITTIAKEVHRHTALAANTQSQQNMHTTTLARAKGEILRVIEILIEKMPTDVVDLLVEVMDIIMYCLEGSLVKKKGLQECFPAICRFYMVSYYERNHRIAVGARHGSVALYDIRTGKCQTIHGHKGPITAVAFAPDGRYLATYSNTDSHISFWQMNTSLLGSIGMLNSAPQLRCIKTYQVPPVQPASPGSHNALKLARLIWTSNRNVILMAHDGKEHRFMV
UniProt Q14135: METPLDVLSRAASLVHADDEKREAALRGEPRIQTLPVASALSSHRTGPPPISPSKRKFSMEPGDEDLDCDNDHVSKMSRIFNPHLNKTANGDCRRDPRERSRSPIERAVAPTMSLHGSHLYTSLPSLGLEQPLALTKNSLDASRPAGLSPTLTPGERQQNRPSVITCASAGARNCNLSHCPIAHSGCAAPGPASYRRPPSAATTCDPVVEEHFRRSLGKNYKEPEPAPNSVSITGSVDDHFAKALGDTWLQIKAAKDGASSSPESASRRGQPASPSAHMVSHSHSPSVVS
UniProt Q8NEZ2: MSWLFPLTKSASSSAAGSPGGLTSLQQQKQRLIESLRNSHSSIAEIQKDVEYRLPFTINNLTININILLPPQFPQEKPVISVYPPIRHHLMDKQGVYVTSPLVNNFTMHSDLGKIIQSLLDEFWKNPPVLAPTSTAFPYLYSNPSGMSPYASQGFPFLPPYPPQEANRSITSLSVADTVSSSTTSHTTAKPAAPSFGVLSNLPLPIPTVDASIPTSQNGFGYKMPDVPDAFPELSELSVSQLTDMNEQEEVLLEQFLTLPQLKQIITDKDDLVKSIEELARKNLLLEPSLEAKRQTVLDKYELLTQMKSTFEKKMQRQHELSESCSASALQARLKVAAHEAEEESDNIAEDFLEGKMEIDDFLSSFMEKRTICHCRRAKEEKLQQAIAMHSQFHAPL
UniProt O00258: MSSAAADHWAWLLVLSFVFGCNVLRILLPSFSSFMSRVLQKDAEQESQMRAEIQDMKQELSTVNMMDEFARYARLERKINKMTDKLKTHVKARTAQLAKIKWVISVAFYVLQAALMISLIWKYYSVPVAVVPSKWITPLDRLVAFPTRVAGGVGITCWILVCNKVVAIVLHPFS
UniProt P98170, whole entry, looked up: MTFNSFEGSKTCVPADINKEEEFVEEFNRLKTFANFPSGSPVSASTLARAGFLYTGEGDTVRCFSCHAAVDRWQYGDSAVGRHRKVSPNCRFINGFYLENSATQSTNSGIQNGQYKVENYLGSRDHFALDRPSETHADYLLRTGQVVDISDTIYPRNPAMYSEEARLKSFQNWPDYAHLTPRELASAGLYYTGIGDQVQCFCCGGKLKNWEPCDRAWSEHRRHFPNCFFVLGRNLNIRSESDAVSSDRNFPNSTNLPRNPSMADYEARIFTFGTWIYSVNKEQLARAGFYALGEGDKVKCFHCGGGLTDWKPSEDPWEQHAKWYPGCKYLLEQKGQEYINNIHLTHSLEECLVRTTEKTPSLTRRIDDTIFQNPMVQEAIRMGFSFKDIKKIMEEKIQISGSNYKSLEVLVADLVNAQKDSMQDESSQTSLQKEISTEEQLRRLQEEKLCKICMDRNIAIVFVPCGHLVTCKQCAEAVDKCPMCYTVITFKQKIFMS
UniProt P40337, whole entry, looked up: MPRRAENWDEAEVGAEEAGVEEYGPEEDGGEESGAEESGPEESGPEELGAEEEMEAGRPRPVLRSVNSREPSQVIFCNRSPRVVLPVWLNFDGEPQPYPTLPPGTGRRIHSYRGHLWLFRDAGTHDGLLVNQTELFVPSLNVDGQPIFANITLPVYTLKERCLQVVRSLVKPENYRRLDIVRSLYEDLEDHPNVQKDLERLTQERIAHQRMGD
UniProt O75717: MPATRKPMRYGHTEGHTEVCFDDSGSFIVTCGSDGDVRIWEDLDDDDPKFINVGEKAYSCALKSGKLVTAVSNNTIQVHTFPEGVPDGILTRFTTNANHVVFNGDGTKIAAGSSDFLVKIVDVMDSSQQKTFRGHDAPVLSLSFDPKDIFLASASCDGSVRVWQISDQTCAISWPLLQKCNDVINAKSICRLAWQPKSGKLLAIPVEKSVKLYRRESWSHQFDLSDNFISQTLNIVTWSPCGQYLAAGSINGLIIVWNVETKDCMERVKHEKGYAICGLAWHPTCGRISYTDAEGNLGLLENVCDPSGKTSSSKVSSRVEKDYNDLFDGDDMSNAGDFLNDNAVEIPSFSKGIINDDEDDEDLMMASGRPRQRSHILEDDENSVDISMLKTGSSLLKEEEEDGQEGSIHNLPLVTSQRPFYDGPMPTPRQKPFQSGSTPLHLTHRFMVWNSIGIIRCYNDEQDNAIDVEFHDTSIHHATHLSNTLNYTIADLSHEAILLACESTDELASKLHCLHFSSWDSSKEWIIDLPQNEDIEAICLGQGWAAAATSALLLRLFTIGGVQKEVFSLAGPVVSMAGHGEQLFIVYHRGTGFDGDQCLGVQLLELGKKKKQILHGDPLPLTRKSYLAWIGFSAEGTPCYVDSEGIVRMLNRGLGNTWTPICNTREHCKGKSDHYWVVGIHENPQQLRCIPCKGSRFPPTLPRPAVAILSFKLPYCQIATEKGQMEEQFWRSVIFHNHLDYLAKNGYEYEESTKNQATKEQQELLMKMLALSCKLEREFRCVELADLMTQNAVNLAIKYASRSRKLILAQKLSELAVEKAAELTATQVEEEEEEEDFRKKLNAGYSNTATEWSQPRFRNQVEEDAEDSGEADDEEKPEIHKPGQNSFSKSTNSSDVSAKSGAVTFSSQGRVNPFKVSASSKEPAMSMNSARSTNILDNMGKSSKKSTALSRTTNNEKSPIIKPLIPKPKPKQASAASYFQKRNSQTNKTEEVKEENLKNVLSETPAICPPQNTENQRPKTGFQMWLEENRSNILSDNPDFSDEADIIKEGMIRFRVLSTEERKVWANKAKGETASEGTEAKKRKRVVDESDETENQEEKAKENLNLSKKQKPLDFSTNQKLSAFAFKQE
UniProt Q5VIR6: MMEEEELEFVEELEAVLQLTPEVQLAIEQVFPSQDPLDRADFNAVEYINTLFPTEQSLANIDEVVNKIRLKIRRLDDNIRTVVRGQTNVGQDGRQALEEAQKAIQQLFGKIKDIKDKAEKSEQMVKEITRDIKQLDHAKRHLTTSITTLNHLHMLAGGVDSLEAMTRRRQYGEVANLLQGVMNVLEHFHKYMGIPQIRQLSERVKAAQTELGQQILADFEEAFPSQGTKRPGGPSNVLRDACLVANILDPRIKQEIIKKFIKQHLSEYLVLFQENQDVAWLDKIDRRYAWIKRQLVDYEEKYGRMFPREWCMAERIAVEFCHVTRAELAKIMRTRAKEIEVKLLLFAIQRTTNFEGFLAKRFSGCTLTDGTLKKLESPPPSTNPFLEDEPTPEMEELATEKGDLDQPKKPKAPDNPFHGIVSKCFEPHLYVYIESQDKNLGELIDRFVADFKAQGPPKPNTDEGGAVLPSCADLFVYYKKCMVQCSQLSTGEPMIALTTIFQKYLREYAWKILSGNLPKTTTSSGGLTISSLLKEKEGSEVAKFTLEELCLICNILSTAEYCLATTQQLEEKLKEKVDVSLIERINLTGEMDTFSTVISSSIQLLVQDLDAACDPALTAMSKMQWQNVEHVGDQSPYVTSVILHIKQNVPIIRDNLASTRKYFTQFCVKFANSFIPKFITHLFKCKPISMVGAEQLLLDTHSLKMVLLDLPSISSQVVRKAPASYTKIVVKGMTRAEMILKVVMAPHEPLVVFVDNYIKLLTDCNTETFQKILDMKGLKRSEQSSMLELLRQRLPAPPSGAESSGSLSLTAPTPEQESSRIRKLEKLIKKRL
UniProt P30291: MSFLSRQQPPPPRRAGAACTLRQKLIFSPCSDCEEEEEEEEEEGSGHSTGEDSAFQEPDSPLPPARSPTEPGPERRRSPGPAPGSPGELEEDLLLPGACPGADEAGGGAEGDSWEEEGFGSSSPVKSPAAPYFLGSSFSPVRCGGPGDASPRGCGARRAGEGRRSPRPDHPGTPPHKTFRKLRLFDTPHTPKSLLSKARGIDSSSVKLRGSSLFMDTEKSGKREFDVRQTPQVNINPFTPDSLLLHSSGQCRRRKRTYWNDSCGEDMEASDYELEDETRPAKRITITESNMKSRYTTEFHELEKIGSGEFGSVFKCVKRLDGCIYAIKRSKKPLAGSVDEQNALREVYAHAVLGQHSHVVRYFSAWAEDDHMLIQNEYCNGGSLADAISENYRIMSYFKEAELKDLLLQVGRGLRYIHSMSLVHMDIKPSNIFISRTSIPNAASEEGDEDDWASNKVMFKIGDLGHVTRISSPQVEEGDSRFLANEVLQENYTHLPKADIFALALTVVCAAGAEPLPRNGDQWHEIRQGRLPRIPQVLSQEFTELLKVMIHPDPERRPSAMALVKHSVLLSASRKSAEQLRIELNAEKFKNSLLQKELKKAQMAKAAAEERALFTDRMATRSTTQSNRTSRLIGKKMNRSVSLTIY
UniProt Q96EX3: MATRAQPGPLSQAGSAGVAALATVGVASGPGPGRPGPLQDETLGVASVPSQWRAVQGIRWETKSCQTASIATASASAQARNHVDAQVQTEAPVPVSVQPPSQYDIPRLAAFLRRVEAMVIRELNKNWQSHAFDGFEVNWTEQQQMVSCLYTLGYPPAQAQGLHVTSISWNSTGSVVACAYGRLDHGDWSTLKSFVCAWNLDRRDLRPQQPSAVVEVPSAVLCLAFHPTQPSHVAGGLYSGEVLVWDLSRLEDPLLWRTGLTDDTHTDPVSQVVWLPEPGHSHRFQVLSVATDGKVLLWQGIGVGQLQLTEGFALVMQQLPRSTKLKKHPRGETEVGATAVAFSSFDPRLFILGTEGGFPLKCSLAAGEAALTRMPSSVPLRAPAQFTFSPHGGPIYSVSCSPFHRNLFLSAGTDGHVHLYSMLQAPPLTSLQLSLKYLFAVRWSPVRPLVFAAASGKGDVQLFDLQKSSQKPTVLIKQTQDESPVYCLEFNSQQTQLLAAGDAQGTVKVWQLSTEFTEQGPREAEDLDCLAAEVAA
UniProt Q9H7M9, whole entry, looked up: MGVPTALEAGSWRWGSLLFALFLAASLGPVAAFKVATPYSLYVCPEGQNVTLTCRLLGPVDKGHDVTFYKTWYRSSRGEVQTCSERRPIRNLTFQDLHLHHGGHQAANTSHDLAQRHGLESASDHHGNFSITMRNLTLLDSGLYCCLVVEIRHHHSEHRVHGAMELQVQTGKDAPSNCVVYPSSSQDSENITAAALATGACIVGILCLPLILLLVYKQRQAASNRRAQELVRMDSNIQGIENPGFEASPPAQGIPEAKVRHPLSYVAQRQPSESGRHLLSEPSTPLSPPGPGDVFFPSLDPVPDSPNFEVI

Assays:
Experiment in all cases: log2 fold change, soluble protein after heating vs DMSO (PISA); higher = thermal stabilisation; K562 cells, 10 uM, 30 min; active = over 0.2 and 3.5 SD of the protein, either way, in both replicates (recomputed)
[1] = compound: CC1=C(C=C(C=C1)NC(=O)C2=CC(=CC=C2)C(C)(C)C#N)NC3=CC4=C(C=C3)N=CN(C4=O)C
Outline: (§1)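 K562 cells (2×10^6 cells/mL) were treated with 10 μM compound for 30 min, and aliquots were heated for 3 min over 48°C-58°C. Pooled aliquots were extracted in PBS with 0.5% NP-40 at 4°C, and the supernatant after 21,000xg for 90 min was measured by TMTpro 16plex LC-MS/MS with channel sums equalised. Reported thermal stability, relative to control samples and from duplicates, is a log2 fold change.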

[2] = compound: CC1=C(C=C(C=C1)NC(=O)C2=CC(=CC=C2)N(C)C)NC(=O)C3=CC=C(C=C3)O
Outline: as §1

[3] = compound: CC1=CC=C(C=C1)SC2=C3C=C(SC3=CN=C2)C(=O)N
Outline: as §1

[4] = compound: CC1=NC(=CC=C1)C2=C(N=C(N2)C(C)(C)C)C3=CC4=NC=CN=C4C=C3
Outline: as §1

Nexturastat A = compound: CCCCN(Cc1ccc(C(=O)NO)cc1)C(=O)Nc1ccccc1 [Nexturastat A]
Outline: as §1

vemurafenib = compound: CCCS(=O)(=O)Nc1ccc(F)c(C(=O)c2c[nH]c3ncc(-c4ccc(Cl)cc4)cc23)c1F [vemurafenib]
Outline: as §1

[5] = compound: CCCS(=O)(=O)Nc1ccc(F)c(C(=O)c2c[nH]c3ncc(Cl)cc23)c1F
Outline: as §1

[6] = compound: CCCc1cc(C)[nH]c(=O)c1CNC(=O)c1cc(-c2ccnc(N3CCN(C)CC3)c2)cc2c1cnn2C(C)C
Outline: as §1

givinostat = compound: CCN(CC)Cc1ccc2cc(COC(=O)Nc3ccc(C(=O)NO)cc3)ccc2c1 [givinostat]
Outline: as §1

barasertib = compound: CCN(CCCOc1ccc2c(Nc3cc(CC(=O)Nc4cccc(F)c4)[nH]n3)ncnc2c1)CCOP(=O)(O)O [barasertib]
Outline: as §1

[7] = compound: CC[C@@H]1C(=O)N(C)c2cnc(Nc3ccc(C(=O)NC4CCN(C)CC4)cc3OC)nc2N1C1CCCC1
Outline: as §1

volasertib = compound: CC[C@@H]1C(=O)N(C)c2cnc(Nc3ccc(C(=O)N[C@H]4CC[C@H](N5CCN(CC6CC6)CC5)CC4)cc3OC)nc2N1C(C)C [volasertib]
Outline: as §1

[8] = compound: CC[C@H](C)N1C=C(C2=C(C=C(C=C21)C3=CN=C(C=C3)N4CCNCC4)C(=O)NCC5=C(C=C(NC5=O)C)C)C
Outline: as §1

epoxomicin = compound: CC[C@H](C)[C@@H](C(=O)N[C@@H]([C@@H](C)O)C(=O)N[C@@H](CC(C)C)C(=O)[C@]1(CO1)C)NC(=O)[C@H]([C@@H](C)CC)N(C)C(=O)C [epoxomicin]
Outline: as §1

[9] = compound: CCn1cc(-c2ccnc3[nH]c(-c4cccc(CN(C)C)c4)cc23)c(-c2ccc(NC(=O)N(C)C)cc2)n1
Outline: as §1

[10] = compound: CN(C)CC(=O)Nc1ccc2[nH]c(=O)c3ccccc3c2c1
Outline: as §1

[11] = compound: CN1C2=C(C3=C1C(=O)N(N=C3)CC4=CC(=CC=C4)N)SC(=C2)S(=O)C
Outline: as §1

[12] = compound: CN1CCC(CNc2ccc3ncc(-c4cccc(OC(F)(F)F)c4)n3n2)CC1
Outline: as §1

rosiglitazone = compound: CN(CCOC1=CC=C(C=C1)C[C@H]2C(=O)NC(=O)S2)C3=CC=CC=N3 (racemic) [rosiglitazone]
Outline: as §1

[13] = compound: CCn1c(C(=O)N(C2CC2)C2CC2)cc2c3c(ncn3C)c(Nc3cc(C)n(C)n3)nc21
Outline: as §1

Measured: log2 fold change

WDR7 (UniProt Q9Y4E6)
inactive: [1] -0.029 | [2] -0.008 | [3] -0.016 | [4] -0.025 | Nexturastat A -0.216 | vemurafenib 0.091 | [5] 0.083 | [6] 0.202 | givinostat 0.067 | barasertib 0.03 | [7] -0.09 | [8] 0.027 | epoxomicin -0.007 | [9] -0.007 | [10] 0.279 | [11] 0.034 | [12] -0.199
active: volasertib -0.415

VKORC1 (UniProt Q9BQB6)
active: [4] -0.325
inactive: [1] 0.064 | [2] -0.04 | [3] 0.001 | vemurafenib -0.023 | [5] 0.117 | [6] -0.017 | givinostat -0.006 | barasertib 0.048 | [7] -0.006 | volasertib -0.079 | [8] -0.088 | [9] 0.008 | [10] 0.072 | [11] 0.03 | [12] -0.09

WDR46 (UniProt O15213)
inactive: [1] 0.039 | [2] -0.021 | [3] -0.001 | [4] -0.102 | Nexturastat A 0.216 | vemurafenib -0.135 | [5] -0.026 | [6] 0.136 | givinostat -0.05 | barasertib -0.064 | [7] 0.195 | volasertib 0.073 | [8] -0.085 | epoxomicin -0.417 | [9] 0.288 | [10] -0.2 | [11] 0.311 | [12] 0.389

WDR81 (UniProt Q562E7)
inactive: [1] -0.029 | [2] -0.046 | [4] -0.16 | Nexturastat A 0.064 | barasertib 0.065 | [8] 0.186 | epoxomicin -0.208 | rosiglitazone 0.007

VGLL4 isoform 4 (UniProt Q14135)
inactive: [1] -0.111 | [2] -0.179 | [3] -0.141 | [4] 0.068 | Nexturastat A 0.027 | vemurafenib 0.047 | [5] -0.09 | [6] 0.04 | givinostat 0.005 | barasertib -0.026 | volasertib -0.09 | [8] -0.005 | epoxomicin 0.013 | [13] 0.001 | [9] 0.001 | [10] -0.01 | rosiglitazone 0.1 | [12] -0.084

WDR46, A0A0G2JJL1
inactive: [1] -0.161 | [3] -0.229 | [4] -0.254 | Nexturastat A 0.194 | vemurafenib -0.09 | [5] 0.078 | [6] 0.19 | givinostat 0.15 | barasertib -0.248 | [7] 0.388 | volasertib 0.37 | [8] -0.068 | epoxomicin -0.451 | [10] -0.183 | [11] 0.215

WWOX (UniProt Q9NZC7)
inactive: [1] -0.137 | [3] -0.064 | [5] -0.106 | [6] -0.02 | givinostat 0.073 | volasertib 0.076 | [13] -0.184

VEZT (UniProt Q9HBM0)
inactive: [1] 0.004 | [2] -0.041 | [3] -0.07 | [4] -0.035 | Nexturastat A -0.064 | vemurafenib 0.143 | [5] -0.006 | [6] 0.061 | givinostat -0.093 | barasertib -0.1 | volasertib -0.211 | [8] 0.148 | epoxomicin 0.003 | [13] -0.039 | [9] -0.003 | [10] 0.066 | rosiglitazone 0.177 | [11] -0.038 | [12] 0.249

VPS37A (UniProt Q8NEZ2)
inactive: [1] -0.015 | [2] -0.171 | [3] 0.019 | [4] 0.001 | Nexturastat A -0.048 | vemurafenib 0.128 | [5] 0.054 | [6] 0.014 | givinostat 0.14 | barasertib 0.076 | [8] 0.085 | epoxomicin 0.045 | [9] -0.068 | [10] 0.165 | [11] 0.025 | [12] 0.054
active: volasertib -0.707

WDR24 (UniProt Q96S15)
inactive: [1] 0.046 | [2] 0.045 | [3] -0.087 | Nexturastat A -0.064 | [5] -0.175 | givinostat 0.008 | [7] -0.067 | volasertib -0.049 | epoxomicin 0.145 | [13] -0.02 | [9] -0.05 | [12] -0.015

WRB (UniProt O00258)
inactive: [1] -0.046 | [2] -0.11 | [3] -0.007 | [4] -0.023 | vemurafenib 0.108 | [5] -0.037 | [6] -0.074 | givinostat 0.032 | barasertib -0.014 | [7] 0.011 | volasertib 0.057 | [8] -0.071 | epoxomicin -0.059 | [9] -0.02 | [10] -0.024 | [11] 0.029 | [12] -0.016
active: Nexturastat A -0.25

XIAP (UniProt P98170)
inactive: [1] -0.047 | [3] -0.045 | Nexturastat A -0.045 | vemurafenib 0.035 | [5] 0 | [6] -0.049 | givinostat 0.019 | barasertib 0 | [7] -0.135 | [8] 0.094 | epoxomicin 0 | [9] 0 | [10] 0.071 | [11] -0.101 | [12] -0.131
active: volasertib -0.457

VHL (UniProt P40337)
inactive: [1] 0.181 | [2] 0.05 | [7] 0.138 | [11] -0.087

WDHD1 (UniProt O75717)
inactive: [1] 0.057 | [2] -0.043 | [3] 0.013 | [4] 0.072 | Nexturastat A -0.053 | vemurafenib 0.066 | [5] 0.095 | [6] 0.022 | givinostat 0.053 | barasertib 0.055 | [7] -0.209 | [8] 0.079 | epoxomicin 0.071 | [9] -0.033 | [10] 0.051 | [11] -0.063 | [12] -0.118
active: volasertib -0.458

VMA21 (UniProt Q3ZAQ7)
inactive: [1] 0.035 | [3] -0.037 | [4] 0.015 | Nexturastat A 0.007 | vemurafenib 0.053 | [5] 0.031 | [6] 0.047 | givinostat -0.006 | barasertib 0.055 | [7] 0.03 | volasertib 0.01 | [8] -0.111 | epoxomicin 0.113 | [13] 0.032 | [9] -0.157 | [10] 0.047 | rosiglitazone -0.048 | [12] 0.236

VPS53 isoform 4 (UniProt Q5VIR6)
inactive: [1] -0.037 | [2] -0.053 | [3] 0.01 | [4] -0.031 | Nexturastat A 0.022 | vemurafenib 0.046 | [5] 0.003 | [6] 0.03 | givinostat 0.045 | barasertib 0.045 | [7] -0.095 | [8] 0.033 | epoxomicin 0.041 | [9] 0.022 | [10] 0.007 | [11] 0.016 | [12] -0.128
active: volasertib -0.358

WEE1 (UniProt P30291)
inactive: [1] -0.037 | [2] 0.02 | [3] -0.304 | [4] -0.046 | Nexturastat A 0.322 | vemurafenib 0 | [5] 0 | [6] -0.137 | givinostat 0.037 | barasertib -0.005 | volasertib 0.07 | [8] -0.028 | epoxomicin 0.203 | [9] -0.209 | [10] -0.103 | [11] 0.046 | [12] 0.195

VDAC1 (UniProt C9JI87)
inactive: [1] -0.03 | [2] -0.003 | [3] -0.034 | Nexturastat A -0.093 | [5] -0.134 | [6] -0.053 | givinostat -0.052 | barasertib 0.071 | [7] 0.097 | volasertib 0.08 | [8] -0.334 | epoxomicin -0.007 | [11] 0.21

Two records drawn at random from those above, as already listed:
VPS53 isoform 4 (UniProt Q5VIR6)
inactive: [1] -0.037 | [2] -0.053 | [3] 0.01 | [4] -0.031 | Nexturastat A 0.022 | vemurafenib 0.046 | [5] 0.003 | [6] 0.03 | givinostat 0.045 | barasertib 0.045 | [7] -0.095 | [8] 0.033 | epoxomicin 0.041 | [9] 0.022 | [10] 0.007 | [11] 0.016 | [12] -0.128
active: volasertib -0.358

VMA21 (UniProt Q3ZAQ7)
inactive: [1] 0.035 | [3] -0.037 | [4] 0.015 | Nexturastat A 0.007 | vemurafenib 0.053 | [5] 0.031 | [6] 0.047 | givinostat -0.006 | barasertib 0.055 | [7] 0.03 | volasertib 0.01 | [8] -0.111 | epoxomicin 0.113 | [13] 0.032 | [9] -0.157 | [10] 0.047 | rosiglitazone -0.048 | [12] 0.236

Later entries.

WDR34 (UniProt Q96EX3)
inactive: [1] -0.072 | [2] 0.232 | [3] 0.041 | [4] -0.023 | Nexturastat A 0.098 | vemurafenib -0.032 | [5] 0.02 | [6] 0.207 | givinostat 0.027 | barasertib 0.084 | volasertib -0.174 | [8] 0.14 | epoxomicin -0.116 | [13] -0.004 | [9] 0.049 | [10] -0.13 | rosiglitazone -0.007 | [11] -0.245 | [12] -0.065

VPS11 (UniProt Q9H270)
active: [7] -0.284 | volasertib -0.53
inactive: [1] 0.016 | [2] -0.003 | [3] 0.002 | [4] 0.076 | Nexturastat A 0.107 | vemurafenib 0.016 | [5] 0.073 | [6] 0.031 | givinostat -0.058 | barasertib 0.017 | [8] 0.14 | epoxomicin 0.025 | [9] -0.074 | [10] 0.059 | [11] 0.03 | [12] -0.244

VSIR (UniProt Q9H7M9)
inactive: [1] -0.032 | [2] 0.001 | [4] -0.129 | Nexturastat A -0.057 | vemurafenib 0.023 | [6] -0.03 | givinostat 0.021 | barasertib -0.087 | [7] 0.107 | [8] -0.039 | epoxomicin 0.03 | [13] 0.01 | [9] 0.036 | [10] -0.017 | rosiglitazone -0.056 | [12] 0.169
